HELM strings list residues between dots; [ac] is acetyl, [am] amide, other brackets name non-standard units.
Test: general procedure: Boc solid-phase peptide synthesis; Boc-Arg(Tos)-OCH2-Pam resin; HBTU (in situ neutralization)
Details: whole synthesis, scale 0.12 mmol

**Q.** With “PEPTIDE1{A.E.Y.V.R.A.L.F.D.F.N.G.N.D.E.E.D.L.P.F.K.K.G.D.I.L.R.I.R.D.K.P.E.E.Q.W.W.N.A.E.D.S.E.G.K.R.G.M.I.P.V.P.Y.V.E.K.Y.R}$$$$V2.0” as the substance, how does the isolated yield (calculated from the original loading of the resin) read?
**A.** The isolated yield was 23%.

**Q.** And the crude mass?
**A.** Its crude mass is 195 mg.
